Source: US8053463B2, “PPAR active compounds” (Plexxikon Inc., priority 2007, dated 2011)
Some results were stated once for a whole list of compounds, not compound by compound. At least one compound was matched to its structure with a doubt left.

The compounds below were run on PPARα, PPARγ, or PPARδ (assay: PPAR activity assays (biochemical and cell based)). Conditions: at least one of the assays, for at least one of PPARα.

EC50, ≤ 1000 nM:
O=C(O)CCc1cn(S(=O)(=O)c2cncc(-c3ccc(C(F)(F)F)cc3Cl)c2)c2ccc(F)cc12 [Compound P-0162, 3-{1-[5-(2-Chloro-4-trifluoromethyl-phenyl)-pyridine-3-sulfonyl]-5-fluoro-1H -indol-3-yl}-propionic acid]
Cc1cc(C(F)(F)F)ccc1-c1cncc(S(=O)(=O)n2cc(CCC(=O)O)c3cc(F)ccc32)c1 [Compound P-0163, 3-{5-Fluoro-1-[5-(2-methyl-4-trifluoromethyl-phenyl)-pyridine-3-sulfonyl]-1H-indol-3yl}-propionic acid]
O=C(O)CCc1cn(S(=O)(=O)c2cncc(-c3ccc(C(F)(F)F)cc3F)c2)c2ccc(F)cc12 [Compound P-0164, 3-{5-Fluoro-1-[5-(2-fluoro-4-trifluoromethyl-phenyl)-pyridine-3-sulfonyl]-1H-indol-3-yl}-propionic acid]
COc1ccc2c(c1)c(CCC(=O)O)cn2S(=O)(=O)c1cncc(-c2ccc(F)c(Cl)c2)c1 [Compound P-0165, 3-{1-[5-(3-Chloro-4-fluoro-phenyl)-pyridine-3-sulfonyl]-5-methoxy-1H-indol-3-yl}-propionic acid]
